Source: PubChem BioAssay AID1224826 (NIAID, 2016)

Test: 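Regulators of Tlr4 signalling leading to Tnf-alpha expression in macrophages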 (primary screen)
Cells: RAW264.7 G9 macrophages from mouse bearing reporters for p65 (GFP) and the Tnf promoter (mCherry)
Reagent: siRNA pool against mouse genes, 100 nM
Timing: 16 h of LPS stimulation, after 2 days of siRNA transfection
Challenge: bacterial lipopolysaccharide (Salmonella minnesota R595), 10 ng/ml
Measurement: 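Nuclear mCherry signal of the Tnf promoter reporter measured by imaging after background removal, scaled to each plate median and turned into robust z-scores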
Scale: Tnf reporter robust z-score: higher = stronger Tnf promoter reporter signal after LPS
Call rule: 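Called active when robust z-score is at most -1.3, matching the median of the Tlr4 knock-down control, or over 3; control wells and wells with under 50 cells never active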
Meaning of the calls: active = Tnf reporter clearly lowered or raised; inactive = no clear change in Tnf reporter
Shown is an unselected part of about 17,000 reagents. In the full data, about 1,110 (6.6%) got an active call. 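Active means lowered or raised reporter signal; replicate intensities are raw and not normalised per plate.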 Unmarked entries are inactive. Further read-outs or replicates are left out here.

For Tab1 (TGF-beta activated kinase 1/MAP3K7 binding protein 1), the entry reads Tnf reporter robust z-score 0.25; fewer than 50 cells in well enough cells in well.
Knock-down of Tmc5 (transmembrane channel-like gene family 5) resulted in: fewer than 50 cells in well fewer than 50 cells per well; well left out of calls.
After knock-down of Bkgd (beta-keto-L-gulonate decarboxylase), the screen gave fewer than 50 cells in well fewer than 50 cells per well; well left out of calls.
For Chpf2 (chondroitin polymerizing factor 2), the values are fewer than 50 cells in well fewer than 50 cells per well; well left out of calls.
Against Mindy2 (MINDY lysine 48 deubiquitinase 2), the entry reads Tnf reporter robust z-score 0.54; fewer than 50 cells in well enough cells in well.
Knock-down of Ca8 (carbonic anhydrase 8) came out at: Tnf reporter robust z-score -0.18; fewer than 50 cells in well enough cells in well.
Enpp4 (ectonucleotide pyrophosphatase/phosphodiesterase 4) showed Tnf reporter robust z-score -0.81; fewer than 50 cells in well enough cells in well.

2 entries from above in another layout.
Tmc5 (transmembrane channel-like gene family 5)
- fewer than 50 cells in well: fewer than 50 cells per well; well left out of calls

Bkgd (beta-keto-L-gulonate decarboxylase)
- fewer than 50 cells in well: fewer than 50 cells per well; well left out of calls

The results go on.
After knock-down of Prss30 (serine protease 30) the results were fewer than 50 cells in well fewer than 50 cells per well; well left out of calls.
Against Map3k7cl (Map3k7 C-terminal like), the entry reads Tnf reporter robust z-score 1.7; fewer than 50 cells in well enough cells in well.
With knock-down of Vmn1r226 (vomeronasal 1 receptor 226) the results were Tnf reporter robust z-score 0.15; fewer than 50 cells in well enough cells in well.
Silencing of Dolk (dolichol kinase) gave: Tnf reporter robust z-score -0.15; fewer than 50 cells in well enough cells in well.
Gpatch1 (G patch domain containing 1) gave Tnf reporter robust z-score -1.07; fewer than 50 cells in well enough cells in well.
Tmem185b (transmembrane protein 185B) scored Tnf reporter robust z-score 3.87 (active); fewer than 50 cells in well enough cells in well.
With knock-down of Elovl4 (ELOVL fatty acid elongase 4), the screen gave Tnf reporter robust z-score -0.2; fewer than 50 cells in well enough cells in well.
